Assay results as given in patent US11376232B2, “Vidofludimus for use in the treatment or prevention of viral diseases” (Immunic AG, priority 2020, dated 2022).
Some results were stated once for a whole list of compounds, not compound by compound.

System: SARS-CoV-2
Assay type: cell-based
Conditions: at doses of 10 and 5 μM, alone

Q: How did the “reduction of virus titer” value turn out when `CCC(CC)COC(=O)[C@H](C)N[P@](=O)(OC[C@H]1O[C@@](C#N)(c2ccc3c(N)ncnn23)[C@H](O)[C@@H]1O)Oc1ccccc1` [Remdesivir, remdesivir, reference compound] was run?
A: > 1 log 10 CCID50
